Max inhibition data for 34 molecules are collected here from PubChem BioAssay AID1307 (SRMLSC, 2008).

The whole screen tested about 1,200 compounds, of which fewer than 10 were called active.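 The calls were made as follows: active = inhibition reaching a set limit at one or more tested concentrations; inactive = inhibition under that limit at every dose.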 Some of the results follow. Results with a measured potency or affinity are listed apart.

The nature of the assay: yeast RAM network inhibitors, dose response, S. cerevisiae (AID 1307).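 Also: 0% = DMSO vehicle wells and 100% = 10 µM 1-NA-PP1 control; higher inhibition means more yeast growth since RAM block rescues cells from 5-FOA.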 As to conditions: S. cerevisiae RAM network URA3 reporter, 5-FOA growth OD615, stronger effect = higher value, yeast express analog-sensitive mutant Cbk1 kinase; at 100 µM unless noted.
`COC(=O)c1ccccc1NC(=O)c1ccc(COc2ccc3c(c2)CCC3)cc1`: the max inhibition was inactive: 5.88%.
The value for `Cc1cccc(Oc2cc(NC(=O)c3ccccc3)cc([N+](=O)[O-])c2)c1` was inactive: 4.61% [at 50 µM].
For `CCN(CC)S(=O)(=O)c1ccc(N2CCN(c3cccc(OC)c3)CC2)c([N+](=O)[O-])c1`, the max inhibition was inactive: 4%.
With `O=[N+]([O-])/C=C/c1c(OCc2ccccc2)ccc2ccccc12` the figure was inactive: 2.91% [at 25 µM]; with `C=CCN1C(=O)C(Cc2ccc(C)cc2)S/C1=N/N=C/c1ccco1` (centres undefined), inactive: 6.91%.
The value for `N#Cc1nc(Cc2ccccc2)oc1N1CCC(Cc2ccccc2)CC1` was inactive: 6.21%.
With `O/N=C/c1cc(Br)ccc1OCc1cccc(F)c1` the figure was inactive: 1.58% [at 0.196 µM]; with `COc1ccc(CC(=O)n2nc(-c3ccc(Cl)cc3)nc2NCc2ccco2)cc1`, inactive: 3.71% [at 25 µM].
Take `COC(=O)c1cc2c(ccn2-c2ccc(F)cc2)n1Cc1ccc(OC)cc1`: the max inhibition was inactive: 5.52% [at 50 µM].
For `COc1c(Br)cc2c(C)c(C(=O)N3CCOCC3)oc2c1Br`, the max inhibition is inactive: 8.78%.
For `COc1ccc(C(=O)O/N=C/c2c(C(F)(F)F)nn(C)c2SCc2ccccc2Cl)cc1`, the max inhibition was inactive: 3.33% [at 0.196 µM].
For the molecule `COc1ccc(/C(C)=N/Nc2cc(C(F)(F)F)ccc2Cl)c(OC)c1`, the max inhibition is inactive: 1.33% [at 50 µM].
With `Cc1noc(NS(=O)(=O)c2ccc(N/C=C\C(=O)c3cccs3)cc2)c1C` the figure was inactive: 7.73%.
With `CCCCC(C(=O)OCC(=O)c1ccc(OC)cc1)N1C(=O)c2ccccc2C1=O` (centres undefined) the figure was inactive: 3.16%.
With `CCCN1C(=O)/C(=c2\sc3nc(=O)c(Cc4ccc(C)cc4)nn3c2=O)c2ccccc21` the figure was inactive: 5.5%; with `Cc1ccc(C(=O)c2ccccc2C(=O)OCC(=O)Nc2ccc(SC(F)F)cc2)cc1`, inactive: 5.79%; with `Cc1nn(Cc2ccccc2)c(Cl)c1C(=O)OCc1nnc(-c2ccccc2)o1`, inactive: 2.05% [at 0.782 µM].
Take `CCCCOc1ccc(CNn2c(C)nc3ccccc3c2=O)cc1`: the max inhibition was inactive: 2.44% [at 25 µM].
For the molecule `CCOC(=O)C(C)Sc1nc(-c2cccs2)ccc1C#N` (centres undefined), the max inhibition is inactive: 2.55% [at 0.196 µM].
With `CC(=O)c1c(Nc2ccccc2)sc(C(=O)c2ccccc2)c1C` the figure was inactive: 5.79%.
The value for `CCOc1cc(/C=N/Nc2nc(Nc3ccccc3)nc(N3CCCCC3)n2)ccc1OCC(=O)O` was inactive: 9.92%; that for `Cc1ccc(S(=O)(=O)c2c(N)n(C)c3nc4ccccc4nc23)cc1` was inactive: 6.47% [at 50 µM].
For `C=CCOC(=O)C1=C(C)NC(SCC(=O)OCC)=C(C#N)C1c1ccc(C)cc1` (centres undefined), the max inhibition was inactive: 2.76% [at 50 µM].
The value for `CCCCCCCCNC(=O)/C(C#N)=C/c1ccc(SC)cc1` was inactive: 5.43%; that for `CCCCC1S/C(=N/N=C/c2ccc(OC)cc2)N(Cc2ccc(OC)cc2)C1=O` (centres undefined) was inactive: 3.97% [at 50 µM]; that for `COC(=O)C/C=C/[C@@H](C)[C@@H](/C=N/OC[C@H]1O[C@H](c2ccccc2)C=C[C@@H]1Oc1ccc(OC)cc1)NS(=O)(=O)c1ccc(C)cc1` was inactive: 3.78%.
With `COCCN(C(=O)C(C)C)c1nnc(-c2ccc(C(C)(C)C)cc2)s1` the figure was inactive: 3% [at 50 µM].
Regarding `Cc1ccc(-n2c(SCC(=O)N3CCCc4ccccc43)nnc2-c2cccnc2)c(C)c1`, the max inhibition was inactive: 3.12% [at 50 µM].
Regarding `CCCCn1nnc(NC(=S)NC(=O)c2ccc(-c3cccc(Cl)c3Cl)o2)n1`, the max inhibition is inactive: 5.34% [at 50 µM].
Turning to `O=C(/C=C/c1cccc(C(F)(F)F)c1)Nc1cccc(C(F)(F)F)c1`, the max inhibition was inactive: 2.77% [at 12.5 µM].
Regarding `CCOC(=O)c1c(-c2ccc(C)o2)csc1NC(=O)CSc1nncs1`, the max inhibition was inactive: 1.46% [setting not given].
The value for `Cc1cccc(NC(=O)C2CCCN2C(=O)Oc2ccccc2)c1C` (centres undefined) was inactive: 3.77% [at 1.563 µM]; that for `CSc1ccc(Cl)c(C(=O)OCC(=O)Nc2ccccc2OC(F)F)c1` was inactive: 3.28% [at 50 µM]; that for `CCOC(=O)c1oc2ccc(Br)cc2c1CSc1nnc(C)s1` was inactive: 3.38% [at 12.5 µM].
